Experimental data from publication PMC3734182.
Results are given in words; binding and its absence hold for the method and conditions named. Binding seen in cells or lysates may run through a third protein. Some entries that bind do so weakly or less than the wild type.

Amino acid sequences for entries named in this document (tags omitted). Residues count along the entry.
UniProt P15208, residues 28-1372: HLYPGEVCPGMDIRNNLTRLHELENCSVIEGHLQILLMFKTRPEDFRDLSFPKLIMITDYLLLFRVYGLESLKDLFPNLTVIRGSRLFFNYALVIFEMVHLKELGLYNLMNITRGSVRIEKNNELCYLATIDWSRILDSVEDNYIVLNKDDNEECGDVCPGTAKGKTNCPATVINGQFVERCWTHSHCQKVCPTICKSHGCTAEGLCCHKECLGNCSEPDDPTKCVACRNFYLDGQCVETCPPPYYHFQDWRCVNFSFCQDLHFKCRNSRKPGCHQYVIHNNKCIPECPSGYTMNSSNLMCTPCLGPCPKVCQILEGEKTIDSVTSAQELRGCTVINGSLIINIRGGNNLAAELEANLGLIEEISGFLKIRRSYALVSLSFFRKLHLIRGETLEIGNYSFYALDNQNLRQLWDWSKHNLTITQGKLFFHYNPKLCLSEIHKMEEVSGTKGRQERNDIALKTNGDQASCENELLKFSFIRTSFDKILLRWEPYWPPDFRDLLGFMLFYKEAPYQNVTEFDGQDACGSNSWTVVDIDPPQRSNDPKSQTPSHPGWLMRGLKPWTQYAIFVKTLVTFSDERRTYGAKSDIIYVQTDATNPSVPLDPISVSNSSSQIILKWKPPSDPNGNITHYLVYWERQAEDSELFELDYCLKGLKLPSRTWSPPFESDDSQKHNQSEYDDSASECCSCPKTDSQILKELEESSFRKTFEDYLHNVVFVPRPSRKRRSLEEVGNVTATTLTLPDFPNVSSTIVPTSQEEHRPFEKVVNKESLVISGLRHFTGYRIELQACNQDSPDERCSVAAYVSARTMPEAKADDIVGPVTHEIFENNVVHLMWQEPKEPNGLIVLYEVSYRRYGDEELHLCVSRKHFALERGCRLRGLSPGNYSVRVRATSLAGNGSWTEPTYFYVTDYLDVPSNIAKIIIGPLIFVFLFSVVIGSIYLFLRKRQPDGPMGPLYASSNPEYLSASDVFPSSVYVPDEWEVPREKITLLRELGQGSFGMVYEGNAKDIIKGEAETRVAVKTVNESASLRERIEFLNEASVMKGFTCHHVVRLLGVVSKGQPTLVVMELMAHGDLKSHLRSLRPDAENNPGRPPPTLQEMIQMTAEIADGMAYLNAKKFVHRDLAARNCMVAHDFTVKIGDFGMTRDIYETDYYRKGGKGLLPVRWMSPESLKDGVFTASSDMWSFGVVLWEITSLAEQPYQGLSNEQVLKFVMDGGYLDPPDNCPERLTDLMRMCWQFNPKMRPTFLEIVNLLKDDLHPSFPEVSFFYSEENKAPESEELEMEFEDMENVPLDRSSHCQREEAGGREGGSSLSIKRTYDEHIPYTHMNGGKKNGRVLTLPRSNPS

Molecular target: insulin receptor (mouse (endogenous in C57BL/6J liver)) (UniProt P15208)
Experiment: proximity ligation; in situ PLA (Duolink) on paraffin-embedded 5 um liver sections of C57BL/6J mice, untreated or stimulated with insulin (10 U/kg body weight, 2 min); rabbit anti-insulin receptor plus goat anti-DEP-1 antibodies; resolution ~40-50 nm

B1: density-enhanced phosphatase-1 (DEP-1) (enzyme, UniProt Q64455 29-1238)
chain: RQGQVLCAGAAPNPIFDIEAVVSPTSVLLTWKHNDSGASECRIENKMESNLTFPVKNQTSCNITGLSPGTSYTFSIISVTTNETLNKTITTEPWPVSDLHVTSVGVTQARLTWSNANGTASYRMLIEELTTHSSVNISGLKPGTNNSFAFPESNETQADFAVAEEVPDANGTKRIPVTNLSQLHKNSLVSVDPPSGQDPSLTEILLTDLKPDTQYNATIYSQAANGTEGQPRNKVFKTNSTQVSDVRAMNISASSMTLTWKSNYDGSRTSIVYKIHVAGGTHSVNQTVNKTEAIILGLSSSTLYNITVHPFLGQTEGTPGFLQVYTSPDQVSDFRVTNVSTRAIGLAWRSNDSKSFEIFIKQDGGEKHRNASTGNQSYMVEDLKPGTSYHFEIIPRGPDGTEGLSSTVNGSTDPSAVTDIRVVNISTTEMQLEWQNTDDASGYTYHLVLESKSGSIIRTNSSQKWITVGSLTPGTLYNVTIFPEVDQIQGISNSITQYTRPSSVSHIEVNTTTTTAAIRWKNEDAASASYAYSVLILKTGDGSNVTSNFTKDPSILIPELIPGVSYTVKILTQVGDGTTSLVPGWNLFCTEPEPVTSFHCEVVPKEPALVLKWACPFGMYTGFELGVRSDSWDNMTRLENCTSDDDTECRTEVAYLNFSTSYNISIATLSCGKMALPAQNICTTGITDPPTPDGSPNITSVSHNSVKVKFSGFEASHGPIKAYAVILTTGEAAQPSADVLKYTYEDFKRGASDTYVTYLIRIEEKGQSQGLSEVLNYEIDVGNQSTTLGYYNGRLEPLGSYRACVAGFTNITYNLQNDGLINGDESYVSFSPYSEAVFLPQDPGVICGAVFGCIFGALAITAVGGFIFWRKKRTDAKNNEVSFSQIKPKKSKLIRVENFEAYFKKQQADSNCGFAEEYEDLKLIGISLPKYTAEIAENRGKNRYNNVLPYDISRVKLSVQTHSTDDYINANYMPGYHSKKDFIATQGPLPNTLKDFWRMVWEKNVYAIVMLTKCVEQGRTKCEEYWPSKQAQDYGDITVAMTSEVVLPEWTIRDFVVKNMQNSESHPLRQFHFTSWPDHGVPDTTDLLINFRYLVRDYMKQIPPESPILVHCSAGVGRTGTFIAIDRLIYQIENENTVDVYGIVYDLRMHRPLMVQTEDQYVFLNQCVLDIIRAQKDSKVDLIYQNTTAMTIYENLEPVSMFGKTNGYIA
binding: binds
